The target of the assay is NF-κB p65 (UniProt Q04206). Description: co-IP; lysate supernatants immunoprecipitated with indicated antibodies overnight, Protein A/G Plus-agarose beads 4 h, Western blotting; which protein was precipitated and which cells were lysed are not told. In general terms: A western blot detects proteins with antibodies after separation by electrophoresis.

Protein sequences, listed by entry. Tags and fused reporters are not part of them.
UniProt Q04206: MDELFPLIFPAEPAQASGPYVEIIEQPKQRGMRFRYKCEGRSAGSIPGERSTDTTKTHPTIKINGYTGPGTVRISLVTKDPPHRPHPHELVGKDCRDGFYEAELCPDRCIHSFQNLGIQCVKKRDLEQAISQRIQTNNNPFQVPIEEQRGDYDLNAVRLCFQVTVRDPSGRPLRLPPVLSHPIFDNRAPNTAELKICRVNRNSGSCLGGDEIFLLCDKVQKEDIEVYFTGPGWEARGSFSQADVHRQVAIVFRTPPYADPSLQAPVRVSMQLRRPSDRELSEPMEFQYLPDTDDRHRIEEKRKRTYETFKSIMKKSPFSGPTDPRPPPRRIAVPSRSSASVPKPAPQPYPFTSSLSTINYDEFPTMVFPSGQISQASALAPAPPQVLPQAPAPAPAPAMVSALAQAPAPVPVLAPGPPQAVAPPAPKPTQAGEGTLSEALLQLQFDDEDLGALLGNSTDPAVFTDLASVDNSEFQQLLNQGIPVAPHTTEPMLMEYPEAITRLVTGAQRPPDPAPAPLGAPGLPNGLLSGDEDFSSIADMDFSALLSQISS

Results are given in words; binding and its absence hold for the method and conditions named. In cells and extracts the contact can be indirect.

B1: Transmembrane protein 16A (TMEM16A) (protein, UniProt Q5XXA6 1-986)
chain: MRVNEKYSTLPAEDRSVHIINICAIEDIGYLPSEGTLLNSLSVDPDAECKYGLYFRDGRRKVDYILVYHHKRPSGNRTLVRRVQHSDTPSGARSVKQDHPLPGKGASLDAGSGEPPMDYHEDDKRFRREEYEGNLLEAGLELERDEDTKIHGVGFVKIHAPWNVLCREAEFLKLKMPTKKMYHINETRGLLKKINSVLQKITDPIQPKVAEHRPQTMKRLSYPFSREKQHLFDLSDKDSFFDSKTRSTIVYEILKRTTCTKAKYSMGITSLLANGVYAAAYPLHDGDYNGENVEFNDRKLLYEEWARYGVFYKYQPIDLVRKYFGEKIGLYFAWLGVYTQMLIPASIVGIIVFLYGCATMDENIPSMEMCDQRHNITMCPLCDKTCSYWKMSSACATARASHLFDNPATVFFSVFMALWAATFMEHWKRKQMRLNYRWDLTGFEEEEEAVKDHPRAEYEARVLEKSLKKESRNKEKRRHIPEESTNKWKQRVKTAMAGVKLTDKVKLTWRDRFPAYLTNLVSIIFMIAVTFAIVLGVIIYRISMAAALAMNSSPSVRSNIRVTVTATAVIINLVVIILLDEVYGCIARWLTKIEVPKTEKSFEERLIFKAFLLKFVNSYTPIFYVAFFKGRFVGRPGDYVYIFRSFRMEECAPGGCLMELCIQLSIIMLGKQLIQNNLFEIGIPKMKKLIRYLKLKQQSPPDHEECVKRKQRYEVDYNLEPFAGLTPEYMEMIIQFGFVTLFVASFPLAPLFALLNNIIEIRLDAKKFVTELRRPVAVRAKDIGIWYNILRGIGKLAVIINAFVISFTSDFIPRLVYLYMYSKNGTMHGFVNHTLSSFNVSDFQNGTAPNDPLDLGYEVQICRYKDYREPPWSENKYDISKDFWAVLAARLAFVIVFQNLVMFMSDFVDWVIPDIPKDISQQIHKEKVLMVELFMREEQDKQQLLETWMEKERQKDEPPCNHHNTKACPDSLGSPAPSHAYHGGVL
Take B1: the binding entry is recorded as “no binding”.
